# Assay results as given in the supplement of paper PMC3334620.
# Whole data set: some 33,000 sequences, median “E-score (-0.5 to 0.5)” near -0.015, cut for the highest 2% near 0.3. The list shows a part of the results.
# Molecular target: T1, Abf1 (UniProt P14164)
# T1 sequence: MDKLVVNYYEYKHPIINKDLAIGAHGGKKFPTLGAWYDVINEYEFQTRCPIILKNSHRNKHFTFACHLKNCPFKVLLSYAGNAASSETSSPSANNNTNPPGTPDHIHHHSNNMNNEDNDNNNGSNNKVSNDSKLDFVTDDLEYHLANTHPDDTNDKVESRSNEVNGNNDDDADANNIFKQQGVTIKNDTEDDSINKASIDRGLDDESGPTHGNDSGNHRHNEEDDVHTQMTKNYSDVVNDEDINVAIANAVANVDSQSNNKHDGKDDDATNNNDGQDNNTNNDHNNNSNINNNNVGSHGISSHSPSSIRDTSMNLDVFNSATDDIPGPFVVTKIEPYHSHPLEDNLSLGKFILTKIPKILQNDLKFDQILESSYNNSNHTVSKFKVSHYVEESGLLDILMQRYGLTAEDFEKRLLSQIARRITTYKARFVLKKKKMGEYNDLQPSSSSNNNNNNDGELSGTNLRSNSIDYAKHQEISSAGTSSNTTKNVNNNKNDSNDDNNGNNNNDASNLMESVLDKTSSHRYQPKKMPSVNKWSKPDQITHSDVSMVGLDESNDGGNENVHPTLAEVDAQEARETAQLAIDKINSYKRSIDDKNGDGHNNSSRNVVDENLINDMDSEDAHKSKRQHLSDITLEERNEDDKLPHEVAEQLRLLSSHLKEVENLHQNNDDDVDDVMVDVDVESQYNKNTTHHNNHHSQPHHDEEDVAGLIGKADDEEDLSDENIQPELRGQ
# Assay: PBM E-score (8-mer binding enrichment) (E-score (-0.5 to 0.5)); higher = stronger / more preferred TF binding
# Settings: protein concentration: 200 nM; construct: GST-full length
# Procedure, shortened: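 Yeast transcription factors, full-length or as DNA-binding domains, were expressed with a GST tag using PURExpress in vitro transcription/translation. At about 100-200 nM they were applied to universal all-10-mer Agilent arrays, double-stranded by primer extension on fresh or once-stripped slides. Fluorescent anti-GST detected bound protein, and masliner normalised the scans. E-scores for ungapped eight-base words, pooled with reverse complements, came from the Universal PBM Analysis Suite.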
row,Sequence,PBM E-score
1,ATTAGATA,0.189
2,AGCCTCCA,-0.276
3,CAACCAAC,-0.0662
4,TTCGGAAA,-0.148
5,CCAGGCAC,0.0493
6,CCCTCTCG,-0.249
7,GAATTTCA,-0.0552
8,CTCATTGC,-0.0922
9,GGGTTCGA,-0.0673
10,ACATCTAC,0.114
11,GGGTCAAC,-0.0715
12,TGAGGGCA,-0.268
13,GAAGGAAA,-0.138
14,TCCTACCA,-0.101
15,ATTCCTTG,0.0574
16,GCAGTTAA,-0.0142
17,ATTGAACC,-0.0857
18,CAAATGCG,0.117
19,AATATCCC,0.0982
20,ATTAGGGC,-0.111
21,AACGCTGT,0.00818
22,AACGTCAG,-0.109

row,Sequence,PBM E-score
1,CATCGTTC,0.0962
2,AGCCGCAC,-0.0599
3,GGAGCGAC,0.0672
4,CGTTGGGC,0.0715
5,GAACTCTA,-0.0122
6,GCTCCCCC,-0.418
7,CCAAAAAA,0.268
8,AGGCTGAT,-0.21
9,ACGCATCG,0.152
10,ACCACATA,0.222
11,CATACGTA,0.293
12,GTGATCTA,0.407
13,TCAATTAA,0.22
14,ACTCTTGA,0.0206
15,GGGCATAA,-0.0266
16,GAACGTAC,0.126
17,ATAACTCA,0.198
18,CTCTTTAA,0.0145
19,TAAACGCA,-0.0182
20,AGATGAAT,-0.134
21,AGGGTAAG,-0.00605
22,GCTAGGTA,-0.015

# Pulled one by one from the entries so far, four records:
row,Sequence,PBM E-score
5,GAACTCTA,-0.0122
17,ATAACTCA,0.198
21,AGGGTAAG,-0.00605
1,CATCGTTC,0.0962

# (continued)

row,Sequence,PBM E-score
1,CCGGACTA,-0.22
2,TCCCACGA,0.326
3,CGGCATAC,0.0158
4,AGGCTTAC,-0.197
5,AAAAACGT,0.0618
6,AACAAATA,0.191
7,ATTACACG,0.161
8,AAGTTGTG,-0.0478
9,CACACGAC,0.295
10,CAGCTCGA,-0.191
11,AGTCGCCG,0.0893
12,AAGTTGTC,0.138
13,CGGGGATC,-0.193
14,CTGTTCCC,-0.155
15,GAAATCAC,0.322
16,AAAATTCT,0.061
17,AGTACACG,0.24
18,CATACTAC,0.0808
19,GGTAACAA,0.177
20,GACGCGTA,0.026
21,AGAAACGG,-0.0326
22,GCTGATTA,0.266

row,Sequence,PBM E-score
1,ACCCCGCT,-0.158
2,CACTCGGA,0.0541
3,TACCTGCA,-0.195
4,ACTCCTGA,0.00759
5,AACCACGT,0.0317
6,GATAGATC,0.0955
7,GAGAAAGC,-0.0241
8,CCAGTTGA,-0.0925
9,AGACACTA,-0.024
10,GATAGGGA,-0.191
11,ACCCAAAT,0.0159
12,CCGCTACC,-0.132
13,AATCATAA,0.206
14,TAAGTGCA,-0.0218
15,ATGTGGTC,0.00542
16,ATTCCAAG,-0.0317
17,GGATGCTA,-0.174
18,ATGTCCCA,0.136
19,ATTCGCGG,0.0888
20,ACATCTCC,-0.0911
